# Experimental data as given in the supplement of paper PMC3334620.
# The full ranking holds about 33,000 sequences; the median of “E-score (-0.5 to 0.5)” is about -0.0034, and the highest 2% start at about 0.25. Some of the results follow.
# Biological target: T1, Yap3 (UniProt P38749)
# T1 sequence: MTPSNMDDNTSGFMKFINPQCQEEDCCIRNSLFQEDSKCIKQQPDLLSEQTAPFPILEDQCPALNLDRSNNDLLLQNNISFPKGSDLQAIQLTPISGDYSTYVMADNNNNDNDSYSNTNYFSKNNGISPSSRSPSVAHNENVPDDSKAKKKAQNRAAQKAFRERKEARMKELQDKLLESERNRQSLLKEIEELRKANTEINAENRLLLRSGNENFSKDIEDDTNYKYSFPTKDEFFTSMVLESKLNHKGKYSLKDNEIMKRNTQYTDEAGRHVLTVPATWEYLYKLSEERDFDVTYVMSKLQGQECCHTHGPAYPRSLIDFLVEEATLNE
# Experiment: PBM E-score (8-mer binding enrichment) (E-score (-0.5 to 0.5)); higher = stronger / more preferred TF binding
# Conditions: protein concentration: 100 nM; construct: GST-full length
# Protocol: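 Universal 'all 10-mer' protein binding microarrays (Agilent AMADID 015681) probed with GST-tagged S. cerevisiae TFs (full-length or DBD) made by in vitro transcription/translation (PURExpress), about 100-200 nM. Bound TF was detected with fluorescent anti-GST. Each ungapped 8-mer (which stands for itself and its reverse complement) is scored by the PBM enrichment score (E-score), a modified Wilcoxon-Mann-Whitney statistic from -0.5 to +0.5, computed with the Universal PBM Analysis Suite. Scale: above 0.35 generally sequence-specific binding.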
row,Sequence,PBM E-score
1,ACACGTGA,0.147
2,CTAGGTAA,-0.0173
3,TAACTCGA,0.217
4,AACTTGTC,0.0823
5,CAGTAGCG,-0.104
6,ACCGCTAG,-0.0863
7,AAACGAGG,-0.0716
8,AATCGCGG,0.0657
9,GGTCCAAC,-0.215
10,GATGTACA,0.168
11,GACTGAAC,-0.104
12,CGTCAGGA,0.00686
13,AAAGGAGT,0.0256
14,ACCTGGTG,-0.307
15,AGATGTAT,0.13
16,ACAGAATC,-0.00878
17,CACCTGCC,-0.0678
18,AAAACCTT,-0.0773
19,GACAAGAA,0.127
20,CAAGGTTC,-0.224
21,CCCAACTC,0.0817
22,GACGTCGC,-0.0943
23,CATGGGCC,-0.116
24,ATTACAGC,-0.046
25,CGCCAGAG,-0.118

row,Sequence,PBM E-score
1,CTGCAAAA,0.0159
2,AACGCGAT,0.0957
3,ATTAGAAT,0.126
4,ACGCATTG,-0.00378
5,GATCGTAA,0.0365
6,AAAAGATG,0.123
7,CAGAACCA,-0.04
8,CCGAGATC,-0.0186
9,GGGTGGAA,-0.0404
10,GGTCGTAC,-0.178
11,TATTAAAA,0.217
12,GAAGACTC,-0.0994
13,CATTAGGA,0.051
14,ATATATCC,0.242
15,CCCTTCCG,-0.213
16,AGGTAGAT,-0.0907
17,ACCGCGGT,0.0694
18,GGAAGTAC,0.0054
19,ATATCGGC,0.0525
20,CTATCCTC,0.00708
21,TACCAGTA,0.0609
22,GTCCCGAC,-0.192
23,ACCGACGA,-0.0888
24,GTGCTGAA,-0.163
25,AATATGTG,0.273

row,Sequence,PBM E-score
1,TCAGCGGA,0.0247
2,CATTCATC,0.0469
3,CGAAAACG,-0.0141
4,GTGTGGGA,0.109
5,CCTTATAA,0.169
6,CGTCAAAG,-0.00136
7,CGTTTCAG,0.0999
8,AGCATGAG,0.132
9,CATTTACC,0.21
10,CACAGTCA,-0.112
11,ACGTACCC,0.104
12,AGGATTAT,-0.123
13,CAGGCATC,-0.133
14,CCAAAAGC,-0.116
15,AGCATACC,0.118
16,ACAGTACC,-0.0947
17,ACAACTCG,0.0431
18,ATCGAACC,0.122
19,CGGATGGA,0.0708
20,AATGATCT,0.0958
21,GCCTTATA,-0.0672
22,AAAGAAAG,0.231
23,AATTCTCA,0.0354
24,AGCGACCT,-0.138
25,GCTAGTCC,-0.176

row,Sequence,PBM E-score
1,AGACGACC,-0.0822
2,AGCTCTGA,-0.181
3,AATAGCAT,0.11
4,ACTTTCGC,0.00931
5,AACCAGGT,-0.0843
6,AGGGCCGC,-0.349
7,GAAGTTCA,0.0821
8,AACCGCGC,0.198
9,CGATGCGA,-0.147
10,GAAACAAA,0.251
11,CTAGCTAG,0.0872
12,AGGTGGAG,-0.142
13,ACAGGGGG,-0.413
14,AAATGGAT,0.142
15,CAACCAGC,-0.0574
16,ATCCCGGA,0.00231
17,GCGCCAGC,-0.316
18,CGAGTATC,-0.0409
19,ATTTCTCG,0.251
20,ATCGTGGC,-0.105
21,GGGGATTA,0.0472
22,TGCAAAAA,0.194
23,CCGGTTGA,-0.115
24,ACGAGCGG,0.0103
25,GTACGGAC,0.0183

row,Sequence,PBM E-score
1,GAATTACC,0.0694
2,GGCTGCCC,-0.308
3,GGCTGATA,-0.059
4,AGGAGCGC,-0.0439
5,AGGAACAT,-0.0291
6,TATGAGAA,0.206
7,CTCAGCTA,-0.224
8,AGAAACTA,0.0625
9,ACGCATGA,0.0311
10,CCCCGACA,-0.127
11,AATTCCGT,0.235
12,ACGTACCT,-0.159
13,CCTCACGC,0.174
14,CAATTCAC,0.126
15,TGAGCACA,-0.00248
16,TGCCGCAA,0.168
17,ACCAAGTC,0.0727
18,CTCACCAG,-0.0897
19,CGGTGCAA,-0.238
20,ACGCGAAC,0.121
21,GCGTGGAC,-0.2
22,CGTGTCTA,0.0292
23,ACCATGGA,-0.167
24,TGTACTAA,0.189
25,GCGACGCA,-0.0118

# Laid out differently: entries from further up
row	Sequence	PBM E-score
15	AGATGTAT	0.13
16	ACAGAATC	-0.00878
17	CACCTGCC	-0.0678
18	AAAACCTT	-0.0773
19	GACAAGAA	0.127
20	CAAGGTTC	-0.224
21	CCCAACTC	0.0817
22	GACGTCGC	-0.0943
23	CATGGGCC	-0.116
24	ATTACAGC	-0.046
25	CGCCAGAG	-0.118
1	CTGCAAAA	0.0159
2	AACGCGAT	0.0957
3	ATTAGAAT	0.126
4	ACGCATTG	-0.00378
5	GATCGTAA	0.0365
6	AAAAGATG	0.123
7	CAGAACCA	-0.04
8	CCGAGATC	-0.0186
9	GGGTGGAA	-0.0404
10	GGTCGTAC	-0.178
11	TATTAAAA	0.217
12	GAAGACTC	-0.0994
13	CATTAGGA	0.051
14	ATATATCC	0.242
15	CCCTTCCG	-0.213
16	AGGTAGAT	-0.0907
17	ACCGCGGT	0.0694
18	GGAAGTAC	0.0054
19	ATATCGGC	0.0525
20	CTATCCTC	0.00708
21	TACCAGTA	0.0609
22	GTCCCGAC	-0.192
23	ACCGACGA	-0.0888
24	GTGCTGAA	-0.163

# Next part

row,Sequence,PBM E-score
1,AAGAAGAG,0.0502
2,AGTCCACC,0.0671
3,AGTGGGCA,0.073
4,CTCTGGGA,-0.259
5,CGAGATAC,0.235
6,GAAATACA,0.0912
7,GTGGTCAA,0.027
8,CGTCCACG,-0.108
9,ATAATTCG,0.242
10,CAAGTAGC,0.0461
11,GATCAATA,0.0561
12,CTAACTGA,0.0987
13,CGGGCTAC,-0.0803
14,AGCTTTTA,0.0679
15,GATATCCA,0.224
16,ATCAAAAA,0.245
17,CGTGACTC,-0.221
18,CAGCAGGG,-0.186
19,CCCTCCAC,-0.18
20,CGTCACAC,-0.0225
21,ACATCTCA,0.112
22,ATTACCAG,0.0993
23,ACGGGTCC,-0.285
24,TTCTAGAA,-0.0421
25,ACAACTGG,0.0446

row,Sequence,PBM E-score
1,TATCCTGA,0.182
2,ACCGCGCG,0.211
3,ATAAGACG,0.0979
4,GCACAGGC,0.0169
5,CAGACGGC,-0.217
6,GACGTTGA,-0.00153
7,CGGGCCGC,-0.11
8,AGCAGGCG,-0.122
9,AACATTAG,0.046
10,TACAAAAA,0.207
11,ACGGAAAC,-0.079
12,CATATACG,0.108
13,ACCTGGCC,-0.0457
14,GAGTTTGA,0.0875
15,ACCGTTAA,0.143
16,CGAGTGCC,-0.299
17,ATTTATCG,0.14
18,GGAGCTCC,-0.228
19,CCTGGGCG,-0.225
20,AACAAGGA,0.198
21,TCCCTAGA,-0.0665
22,GATCGCGC,0.0573
